PubChem BioAssay AID485314 (National Center for Advancing Translational Sciences (NCATS), 2010)
Out of some 340,000 compounds screened, about 4,500 (1.3%) were called active. Inconclusive results, whose numbers are uncertain, are shown with a selection of clear calls. Calls follow the shape of the dose curve; as a rule, active = well fitted inhibition curve with a large enough effect; inconclusive = small, poorly fitted or top-dose-only effect, or another doubt; inactive = no such curve, though single readings can be large or run the other way. Where the call is inconclusive, the potency comes from a doubtful curve fit.

biological target: DNA polymerase beta (Homo sapiens) (UniProt P06746); assay: qHTS Assay for Inhibitors of DNA Polymerase Beta; conditions: Pol beta primer extension/strand displacement, fluorescence kinetic; activity change, negative = inhibition: at 114 µM (top of the series)
Summary of the method: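 Pol beta (10 nM) was preincubated with compound for 15 min at room temperature. The reaction was then started with 50 nM substrate and read immediately and after a further 10 min at room temperature.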
% is scaled to controls: 0 for no effect and ±100 for the full control effect; potency is read from the fitted curve at half-maximal effect.

SMILES | Potency | activity change, negative = inhibition
O=c1c2ccccc2nc(-c2ccc(Cl)c(Cl)c2)n1O | inconclusive: 0.141 µM [inhibitor, full curve, poor fit] | 
Cc1ccn2c(Nc3ccc4c(c3)OCCO4)c(-c3cccs3)nc2c1 | inconclusive: 89.1 µM [inhibitor, single point] | 
CCc1ccc(C2CC(=O)c3c([nH]c(C(=O)OCCOc4ccccc4)c3C)C2)cc1 (stereo not drawn) | inconclusive: 79.4 µM [inhibitor, single point] | 
CCOCc1nnc(NC(=O)CSc2ccc(C)cc2)s1 | inconclusive: 2.51 µM [inhibitor, single point] | 
COc1ccc2nc(/C=N/NC(=O)CCCCCNC(=O)OC(C)(C)C)ccc2c1 |  | inconclusive: -95.6% [inhibitor]
COc1ccc(NC(=O)CSc2nc(C)cs2)cc1 | inconclusive: 1 µM [inhibitor, full curve, poor fit] | 
Cc1ccc(Cl)cc1N1CCN(S(=O)(=O)c2ccc3[nH]c(=O)ccc3c2)CC1 | inconclusive: 44.7 µM [inhibitor, partial curve, poor fit] | 
Cc1c(NC(=O)c2cccnc2)c(=O)n(-c2ccccc2)n1C | inconclusive: 11.2 µM [inhibitor, partial curve] | 
Cc1cccc(NC(=O)c2cc(NC(=O)c3ccccc3)ccc2N2CCCCC2)c1 | inconclusive: 0.708 µM [inhibitor, full curve] | 
COc1cc(OC)c(NC(=O)C2CCCN(c3ncnc4c3nc3n4CCCCC3)C2)cc1Cl (stereo not drawn) |  | inactive: -3.67%
COc1ccccc1N1CCN(c2ncc(C(=O)N3CCN(c4cccc(Cl)c4)CC3)c3ccccc23)CC1 | inconclusive: 89.1 µM [inhibitor, single point] | 
CCN(CC)C(=O)CSC1=N/C(=C/c2ccco2)C(=O)N1c1ccc(OC)c(Cl)c1 | inconclusive: 22.4 µM [inhibitor, full curve] | 
COc1ccc(OC)c(/C=N/c2oc(-c3ccco3)c(-c3ccco3)c2C#N)c1 | active: 44.7 µM | 
CC1Cc2cc(S(=O)(=O)N3CCN(c4ccccc4F)CC3)ccc2N1C(=O)C1CCC1 (stereo not drawn) | inconclusive: 31.6 µM [inhibitor, single point] | 
CC1=NN(c2nc(-c3ccccc3)cs2)C(=O)C1 |  | inactive: -1.34%
O=c1ccc(NS(=O)(=O)c2ccc(Cl)cc2)cn1Cc1ccc(Cl)c(Cl)c1 | inconclusive: 39.8 µM [inhibitor, single point] | 
Cc1nn(-c2ccccc2)nc1C(=O)Nc1ccc2c(c1)OCCO2 | inconclusive: 0.316 µM [inhibitor, full curve, poor fit] | 
CCOc1cc(/C=C2\CCCC(C(=O)C(F)(F)F)=C2O)ccc1O | active: 50.1 µM | 
CC1CCN(C(=O)CN(Cc2ccc(Cl)cc2)S(C)(=O)=O)CC1 | inconclusive: 39.8 µM [inhibitor, partial curve] | 
O=C1CCCC(O)=C1N=Nc1cccc(C(=O)O)c1 | active: 10 µM | 
NC(=O)c1ccc(N=C2C(=O)Nc3ccc([N+](=O)[O-])cc32)cc1 | inconclusive: 39.8 µM [inhibitor, single point] | 
C/C(=N\Nc1ccc(C(=O)O)cc1)c1ccc2c(c1)Nc1ccccc1S2 | inconclusive: 15.8 µM [inhibitor, full curve, poor fit] | 

3 entries out of the list, ordered by number of heavy atoms, smallest number first:
SMILES | Potency | activity change, negative = inhibition
CCOc1cc(/C=C2\CCCC(C(=O)C(F)(F)F)=C2O)ccc1O | active: 50.1 µM | 
Cc1nn(-c2ccccc2)nc1C(=O)Nc1ccc2c(c1)OCCO2 | inconclusive: 0.316 µM [inhibitor, full curve, poor fit] | 
CCc1ccc(C2CC(=O)c3c([nH]c(C(=O)OCCOc4ccccc4)c3C)C2)cc1 (stereo not drawn) | inconclusive: 79.4 µM [inhibitor, single point] | 

Additional records.

SMILES | Potency | activity change, negative = inhibition
OCCNc1ncnc2c1cnn2Cc1ccccc1 | inconclusive: 28.2 µM [inhibitor, single point] | 
O=C(/C=C/c1ccccc1Cl)Nc1ccc2c(c1)C(=O)NC2=O | active: 8.91 µM | 
CCc1ccc2c(c1)c(=O)c(S(=O)(=O)c1ccc(F)cc1)cn2CC(=O)Nc1ccc(C)cc1C |  | inactive: 14.9%
COc1ccc(N)c2c1C(=O)c1ccccc1C2=O | inconclusive: 44.7 µM [inhibitor, partial curve] | 
Cc1cccc(CSc2ncnc3c2cnn3Cc2ccccc2)c1 | inconclusive: 31.6 µM [inhibitor, partial curve] | 
Cc1cccc(C)c1NC(=O)c1oc2ccc3c(c2c1C)C(=O)CC(C)(C)O3 |  | inactive: 32%
CCCCn1c(CN2CCN(CCO)CC2)nc2ccccc21 | inconclusive: 100 µM [inhibitor, single point] | 
CCCC(=O)Nc1ccc(N2CCCCC2)cc1 |  | inactive: 15.5%
Cc1ccc(C(=O)NCc2ccc(N(C)C)cc2)cc1NC(=O)c1nsc2ccccc12 |  | inactive: -16.1%
COc1ccccc1N1CCN(C(C)C(=O)Nc2ccc(S(=O)(=O)N3CCOCC3)cc2)CC1 (stereo not drawn) | inconclusive: 2 µM [inhibitor, single point] | 
COc1cccc(/C=N/NC(=O)c2cc(-c3cccn3C)n[nH]2)c1O | inconclusive: 39.8 µM [inhibitor, partial curve] | 
Cc1cc(NS(=O)(=O)c2ccc(NC(=O)c3cc4c(=O)n5ccccc5nc4s3)cc2)nc(C)n1 | inconclusive: 39.8 µM [inhibitor, full curve, poor fit] | 
COc1ccc(OCC(=O)OCc2cc(=O)n3nc(C4CCCCC4)sc3n2)cc1 | active: 44.7 µM | 
COc1ccc(-n2c(N)c(C(=O)NCc3ccco3)c3nc4ccccc4nc32)cc1OC | inconclusive: 89.1 µM [inhibitor, single point] | 
CCOC(=O)c1cc(-c2ccccc2)n(-c2cccc(C(=O)Nc3ccc(OC)cc3)c2)c1C |  | inactive: 7.29%
O=C(Cn1c(=O)c2cccn2c2ccccc21)Nc1cc(F)ccc1F | inconclusive: 50.1 µM [inhibitor, partial curve] | 
COc1ccccc1NC(=O)c1cccc(S(=O)(=O)N2CCCCCC2)c1 |  | inactive: -12.2%
CCOC(=O)CON1C(=O)C(=O)N(OCC(=O)OCC)[C@H]2CCCC[C@H]21 |  | inconclusive: -35.3% [inhibitor]
COc1ccc(S(=O)(=O)N2CCN(c3c(C)cccc3C)CC2)cc1OC | inconclusive: 10 µM [inhibitor, partial curve] | 
CC1(CC(=O)N/N=C/c2cc([N+](=O)[O-])c(O)cc2O)OCCO1 | active: 4.47 µM | 
CC(C)N1CCC2(CC1)Oc1ccc(Br)cc1C1CC(c3cccnc3)=NN12 (stereo not drawn) |  | inconclusive: -40.1% [inhibitor]
